The values that follow come from BindingDB's records for doi:10.1016/S0893-133X(97)00112-7 (H. Lundbeck, 1998).

Sequences of proteins named here, by UniProt entry; tags and fusion partners are left off.
UniProt P19020, whole entry: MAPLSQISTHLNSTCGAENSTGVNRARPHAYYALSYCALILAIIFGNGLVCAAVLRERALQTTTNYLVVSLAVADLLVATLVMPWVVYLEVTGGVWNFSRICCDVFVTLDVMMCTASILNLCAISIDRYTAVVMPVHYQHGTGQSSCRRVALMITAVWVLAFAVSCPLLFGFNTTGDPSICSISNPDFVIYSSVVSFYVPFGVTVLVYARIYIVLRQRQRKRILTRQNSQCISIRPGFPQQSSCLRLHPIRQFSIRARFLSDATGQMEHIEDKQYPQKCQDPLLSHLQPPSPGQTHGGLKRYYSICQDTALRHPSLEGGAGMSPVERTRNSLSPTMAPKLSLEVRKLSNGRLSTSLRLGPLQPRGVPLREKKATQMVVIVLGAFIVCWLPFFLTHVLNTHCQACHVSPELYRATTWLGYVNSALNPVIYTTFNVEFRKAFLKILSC

Molecules are shown by their SMILES.

This assay addresses D(3) dopamine receptor (Rattus norvegicus, UniProt P19020).

Take `OCCOCCN1CCN(C2=Nc3ccccc3Sc3ccccc32)CC1` [2-[2-(4-dibenzo[b,f][1,4]thiazepin-11-ylpiperazin-1-yl)ethoxy]ethanol]: the affinity, expressed as Ki, was 180 nM.
